Values of other authors, collected in patent publication US10556920B2, “Phosphorus-containing heterocycles and a method for making and using” (University of Oregon, priority 2015, dated 2020).
Some results were stated once for a whole list of compounds, not compound by compound.

Settings: cis-amides, in CHCl3; cited from earlier work

Row | Structure (SMILES) | dimerization constants [M⁻¹]
1 | O=C1CCCN1 [pyrrolidone] | 1 to 5
2 | O=C1CCCCCN1 [caprolactam] | 1 to 5
